# End groups of sequences in plain letters are not given here. Some peptides are written in HELM: one residue between dots, names in brackets for other building blocks, links after the first $. *1 amine or outer side, *2 acyl side, *3 side chain or, on linkers, in order; H or OH if unused. Bridges are numbered along the chain shown (N, C = ends). Side-chain parts run from the residue outwards. [ ]: non-standard residue; d: D form. The star is where a group is joined. Trp(2-yl) = O=C([C@H](Cc1c([*:3])[nH]c2ccccc12)N[*:1])[*:2]; X1 = CN(CC(=O)O)c1nc(CC[*:1])cc(CC[*:2])n1; Lauroyl = CCCCCCCCCCCC(=O)*; hCys = N[C@@H](CCS)C(=O)O; AEEA = NCCOCCOCC(=O)O
# Experiment: general procedure: Fmoc solid-phase peptide synthesis; Merck LL MBHA Rink amide resin (0.33 mmol/g manual; 0.46 mmol/g automated); HATU/DIPEA (manual); DIC/Oxyma pure (automated)
# Conditions: for final HPLC purity: LCMS and HPLC analysis
# [1] = cyclisation step, thioether ring
Substance,final HPLC purity (whole synthesis) [%],final HPLC purity (cyclisation step) [%],also measured
RRR(Ahx)(Ahx)(hC)RLYGFKW,98,–,–
{Lauroyl-AEEA}-[hCys]RLYGFK[Trp(2-yl)]-NH2 (thioether 1-8; SMILES CCCCCCCCCCCC(=O)NCCOCCOCC(=O)N[C@H]1CCSc2[nH]c3ccccc3c2C[C@@H](C(N)=O)NC(=O)[C@H](CCCCN)NC(=O)[C@H](Cc2ccccc2)NC(=O)CNC(=O)[C@H](Cc2ccc(O)cc2)NC(=O)[C@H](CC(C)C)NC(=O)[C@H](CCCNC(=N)N)NC1=O),–,99,–
Ac-CRLYGFK[Trp(2-yl)]-NH2 (thioether 1-8; SMILES CC(=O)N[C@H]1CSc2[nH]c3ccccc3c2C[C@@H](C(N)=O)NC(=O)[C@H](CCCCN)NC(=O)[C@H](Cc2ccccc2)NC(=O)CNC(=O)[C@H](Cc2ccc(O)cc2)NC(=O)[C@H](CC(C)C)NC(=O)[C@H](CCCNC(=N)N)NC1=O),–,94,cyclisation yield (cyclisation step): 25%
(hC)RLYGFK(PEG-Ac)W,97,–,–
"PEPTIDE1{[ac].C.R.L.Y.G.F.K.C.[am]}|CHEM1{[C5_mXylene]}$PEPTIDE1,CHEM1,2:R3-1:R1|PEPTIDE1,CHEM1,9:R3-1:R2$$$V2.0",–,95,–
"PEPTIDE1{[ac].C.R.L.Y.G.F.K.C.[am]}|CHEM1{[C4_acetone]}$PEPTIDE1,CHEM1,2:R3-1:R1|PEPTIDE1,CHEM1,9:R3-1:R2$$$V2.0",–,90,cyclisation yield (cyclisation step): 8%
Ac-[hCys]RLYGFKW-NH2 (SMILES CC(=O)N[C@@H](CCS)C(=O)N[C@@H](CCCNC(=N)N)C(=O)N[C@@H](CC(C)C)C(=O)N[C@@H](Cc1ccc(O)cc1)C(=O)NCC(=O)N[C@@H](Cc1ccccc1)C(=O)N[C@@H](CCCCN)C(=O)N[C@@H](Cc1c[nH]c2ccccc12)C(N)=O),95,–,–
(hC)RLYGFK(PEG-(LA))W,98,–,–
Ac-[hCys]RLYGFK([AEEA-Ac])[Trp(2-yl)]-NH2 (thioether 1-8 (inferred); SMILES CC(=O)NCCOCCOCC(=O)NCCCC[C@@H]1NC(=O)[C@H](Cc2ccccc2)NC(=O)CNC(=O)[C@H](Cc2ccc(O)cc2)NC(=O)[C@H](CC(C)C)NC(=O)[C@H](CCCNC(=N)N)NC(=O)[C@@H](NC(C)=O)CCSc2[nH]c3ccccc3c2C[C@@H](C(N)=O)NC1=O),–,>99,–
Ac-RLYGFKW-NH2,93,–,–
Ac-CRLYGFKC-NH2 (linker 1-8 via X1; SMILES CC(=O)N[C@H]1CSCCc2cc(nc(N(C)CC(=O)O)n2)CCSC[C@@H](C(N)=O)NC(=O)[C@H](CCCCN)NC(=O)[C@H](Cc2ccccc2)NC(=O)CNC(=O)[C@H](Cc2ccc(O)cc2)NC(=O)[C@H](CC(C)C)NC(=O)[C@H](CCCNC(=N)N)NC1=O),–,74,cyclisation yield (cyclisation step): 17%
Ac-RLYGFKWH-NH2,96,–,–
GRKKRRQRRRPPQ(Ahx)(Ahx)(hC)C9RLYGFKWC9,–,–,final HPLC purity [1]: >99%
(LA)(PEG)(hC)RLYGFKW,90,–,–
JC3RLYGFKXC3,–,–,"final HPLC purity (cyclisation step, cyclic): 96%; cyclisation yield (cyclisation step, cyclic): 3%"
RRR(Ahx)(Ahx)(hC)C9RLYGFKWC9,–,–,final HPLC purity [1]: 99%
(PEG)(hC)C3RLYGFKWC3,–,–,final HPLC purity [1]: 98%
CRLYGFKW,95,–,–
GRKKRRQRRRPPQ(Ahx)(Ahx),98,–,–
GRKKRRQRRRPPQ(Ahx)(Ahx)(hC)RLYGFKW,62,–,–
Ac-RLYGFK-NH2,95,–,–
CRLYGFKC,96,–,–
Ac-LYGFKW-NH2,97,–,–
Ac-[hCys]RLYGFK[Trp(2-yl)]-NH2 (thioether 1-8; SMILES CC(=O)N[C@H]1CCSc2[nH]c3ccccc3c2C[C@@H](C(N)=O)NC(=O)[C@H](CCCCN)NC(=O)[C@H](Cc2ccccc2)NC(=O)CNC(=O)[C@H](Cc2ccc(O)cc2)NC(=O)[C@H](CC(C)C)NC(=O)[C@H](CCCNC(=N)N)NC1=O),–,97,–
(PEG)(hC)RLYGFKW,86,–,–
"PEPTIDE1{[ac].C.R.L.Y.G.F.K.C.[am]}|CHEM1{[C6_CH2]}$PEPTIDE1,CHEM1,2:R3-1:R1|PEPTIDE1,CHEM1,9:R3-1:R2$$$V2.0",–,92,cyclisation yield (cyclisation step): 19%
JC2RLYGFKXC2,–,–,"final HPLC purity (cyclisation step, cyclic): 98%; cyclisation yield (cyclisation step, cyclic): 19%"
PEPTIDE1{[ac].G.[Aza].R.L.Y.G.F.K.W.H.[Aza].G.G.[am]}$$$$V2.0,97,–,–
Ac-[hCys]RLYGFK([AEEA-Lauroyl])[Trp(2-yl)]-NH2 (thioether 1-8; SMILES CCCCCCCCCCCC(=O)NCCOCCOCC(=O)NCCCC[C@@H]1NC(=O)[C@H](Cc2ccccc2)NC(=O)CNC(=O)[C@H](Cc2ccc(O)cc2)NC(=O)[C@H](CC(C)C)NC(=O)[C@H](CCCNC(=N)N)NC(=O)[C@@H](NC(C)=O)CCSc2[nH]c3ccccc3c2C[C@@H](C(N)=O)NC1=O),–,92,–

# — PMC9004346 (Chemical Communications (Cambridge, England), 2022)
